## Results of single-concentration screens

The chains behind the UniProt entries cited, without tags or fusion partners. Residues count along the entry.
UniProt P9WPC5, whole entry: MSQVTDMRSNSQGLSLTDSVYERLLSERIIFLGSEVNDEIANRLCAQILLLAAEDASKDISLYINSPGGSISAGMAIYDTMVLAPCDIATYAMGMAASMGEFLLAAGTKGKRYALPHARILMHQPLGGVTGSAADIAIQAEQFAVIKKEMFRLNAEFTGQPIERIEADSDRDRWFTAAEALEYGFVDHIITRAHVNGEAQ
UniProt P9WPC3, whole entry partner: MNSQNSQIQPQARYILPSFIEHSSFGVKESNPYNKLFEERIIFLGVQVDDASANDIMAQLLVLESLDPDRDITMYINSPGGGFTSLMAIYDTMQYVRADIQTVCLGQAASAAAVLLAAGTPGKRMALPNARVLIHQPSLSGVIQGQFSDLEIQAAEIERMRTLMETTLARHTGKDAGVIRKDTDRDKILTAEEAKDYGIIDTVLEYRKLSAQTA
UniProt I6X8D2, whole entry: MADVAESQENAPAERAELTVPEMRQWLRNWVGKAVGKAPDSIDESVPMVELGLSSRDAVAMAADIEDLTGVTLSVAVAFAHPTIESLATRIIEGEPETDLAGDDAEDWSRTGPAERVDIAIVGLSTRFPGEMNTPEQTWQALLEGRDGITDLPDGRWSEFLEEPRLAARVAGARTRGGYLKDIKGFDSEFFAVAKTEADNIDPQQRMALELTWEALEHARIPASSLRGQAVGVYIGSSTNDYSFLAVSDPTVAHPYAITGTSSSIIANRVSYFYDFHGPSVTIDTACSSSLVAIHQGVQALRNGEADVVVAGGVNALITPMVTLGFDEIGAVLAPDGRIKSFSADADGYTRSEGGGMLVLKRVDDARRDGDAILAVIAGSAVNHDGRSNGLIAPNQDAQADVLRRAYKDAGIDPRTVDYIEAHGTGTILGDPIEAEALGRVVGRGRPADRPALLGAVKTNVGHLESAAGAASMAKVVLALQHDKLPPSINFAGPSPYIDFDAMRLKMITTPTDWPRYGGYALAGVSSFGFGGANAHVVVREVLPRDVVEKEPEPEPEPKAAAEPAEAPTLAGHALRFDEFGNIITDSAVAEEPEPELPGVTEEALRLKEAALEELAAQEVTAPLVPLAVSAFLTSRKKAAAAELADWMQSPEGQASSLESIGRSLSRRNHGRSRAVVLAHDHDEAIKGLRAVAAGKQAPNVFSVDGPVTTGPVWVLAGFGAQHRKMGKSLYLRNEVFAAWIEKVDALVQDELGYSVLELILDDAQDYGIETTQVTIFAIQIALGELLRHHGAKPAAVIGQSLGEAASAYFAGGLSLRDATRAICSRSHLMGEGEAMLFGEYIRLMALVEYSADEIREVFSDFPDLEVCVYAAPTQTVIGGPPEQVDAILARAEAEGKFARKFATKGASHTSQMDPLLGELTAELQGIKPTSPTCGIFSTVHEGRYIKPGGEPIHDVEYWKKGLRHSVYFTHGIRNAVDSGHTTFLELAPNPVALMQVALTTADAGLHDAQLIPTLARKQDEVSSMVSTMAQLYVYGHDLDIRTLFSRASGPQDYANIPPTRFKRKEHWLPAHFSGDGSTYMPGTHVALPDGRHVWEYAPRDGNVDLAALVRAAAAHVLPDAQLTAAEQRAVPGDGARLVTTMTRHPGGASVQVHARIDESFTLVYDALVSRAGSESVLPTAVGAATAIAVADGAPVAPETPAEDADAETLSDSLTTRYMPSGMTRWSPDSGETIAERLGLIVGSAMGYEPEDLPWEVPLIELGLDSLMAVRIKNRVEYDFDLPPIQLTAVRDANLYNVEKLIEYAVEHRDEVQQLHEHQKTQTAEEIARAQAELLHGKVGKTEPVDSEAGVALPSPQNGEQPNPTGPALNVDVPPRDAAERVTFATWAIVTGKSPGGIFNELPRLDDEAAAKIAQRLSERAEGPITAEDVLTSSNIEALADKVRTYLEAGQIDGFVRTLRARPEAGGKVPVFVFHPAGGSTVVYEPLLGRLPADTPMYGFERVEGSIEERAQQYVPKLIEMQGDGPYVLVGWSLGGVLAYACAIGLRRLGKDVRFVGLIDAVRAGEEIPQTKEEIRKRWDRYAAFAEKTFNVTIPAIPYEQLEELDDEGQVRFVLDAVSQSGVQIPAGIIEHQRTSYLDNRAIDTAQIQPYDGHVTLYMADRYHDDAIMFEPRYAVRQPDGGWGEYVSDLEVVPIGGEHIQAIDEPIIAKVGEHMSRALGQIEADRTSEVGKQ
UniProt Q8IDJ8, 1-583: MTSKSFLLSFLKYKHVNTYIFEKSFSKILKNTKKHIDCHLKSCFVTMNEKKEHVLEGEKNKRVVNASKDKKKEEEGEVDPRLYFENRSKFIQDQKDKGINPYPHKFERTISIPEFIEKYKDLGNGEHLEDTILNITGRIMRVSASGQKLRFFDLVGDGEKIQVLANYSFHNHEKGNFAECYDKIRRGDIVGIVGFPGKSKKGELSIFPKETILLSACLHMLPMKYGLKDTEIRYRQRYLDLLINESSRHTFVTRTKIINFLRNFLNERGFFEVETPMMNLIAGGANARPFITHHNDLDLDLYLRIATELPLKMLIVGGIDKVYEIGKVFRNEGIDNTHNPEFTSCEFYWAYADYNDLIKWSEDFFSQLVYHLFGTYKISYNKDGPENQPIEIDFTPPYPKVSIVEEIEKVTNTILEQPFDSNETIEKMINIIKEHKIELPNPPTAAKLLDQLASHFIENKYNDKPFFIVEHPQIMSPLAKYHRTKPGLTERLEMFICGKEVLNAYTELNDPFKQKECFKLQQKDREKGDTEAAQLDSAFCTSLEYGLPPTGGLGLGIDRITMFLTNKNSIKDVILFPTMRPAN

From ChEMBL document CHEMBL3988442, “University of Dundee, Small-Polar-MMV Screening Library” (2021).

A: 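Protease assay of ClpP1P2, read by the AMC dye that it sets free. Target: ClpP1P2, Mycobacterium tuberculosis (UniProt P9WPC5 and UniProt P9WPC3). Concentration: 50 µM. Direction is inferred from only a few compounds that gave an IC50; most scored high, so higher reads as stronger inhibition. Most other retested compounds had strongly negative values. About 69,000 compounds were tested under these conditions; 0.015% (about 10) showed 50% or more at least once.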
B: 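Cell assay of Leishmania donovani living inside macrophages; the read-out is not stated. Compounds at 30 µM. Direction is inferred from retests: higher values go with stronger inhibition. Size under these conditions: about 69,000 compounds, about 1,000 of them at 50% or above in at least one test.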
C: 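Enzyme assay of the thioesterase domain of polyketide synthase 13; the read-out is not stated. Target: Polyketide synthase Pks13, Mycobacterium tuberculosis (UniProt I6X8D2). Tested at 30 µM. The record gives no direction; the compounds picked for IC50 retests had high values, so higher reads as stronger inhibition. Of about 67,000 compounds tested this way, about 300 (0.46%) reached 50% or more in at least one test.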
D: 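Lysine-tRNA ligase, Plasmodium falciparum 3D7 (UniProt Q8IDJ8). Enzyme assay of the cytosolic lysyl-tRNA synthetase in 384-well plates, read by luminescence. Concentration: 30 µM. Direction is inferred from only a few compounds that gave an IC50; most scored high, so higher reads as stronger inhibition. Size under these conditions: about 69,000 compounds, about 49 of them at 50% or above in at least one test.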
E: 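Assay of Toxoplasma gondii numbers, read through their beta-galactosidase reporter with a colour substrate. Compounds at 10 µM. The record gives no direction; the compounds picked for IC50 retests had high values, so higher reads as fewer parasites. About 67,000 compounds were tested under these conditions; 0.38% (about 260) showed 50% or more at least once.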

Results are given as percent effect.
How 0% and 100% were set is not recorded. Most values in the screen are low, and negative values occur.
The compounds are a random part of those screened.
Two or more numbers in one place are separate tests of the same structure; such repeats can differ widely.
A dash means the value is not listed here; it may have been measured.

| # | SMILES | A | B | C | D | E |
|---|---|---|---|---|---|---|
| 1 | `CC(=O)N1CCCC1c1nc(N(C)C)ncc1-c1ccccc1` (configuration not stated) | 2.227 | 8.174 | -35.3 | -3.559 | - |
| 2 | `Cc1cc(C(=O)NCC2COCc3c(C)nnn3C2)no1` (configuration not stated) | 7.929 | 24.27 | -4.459 | 4.487 | 6.193 |
| 3 | `COc1cc(CNCc2ccc(NC(=O)NC(C)C)cc2)cc(OC)c1` | 3.507 | 31.66 | -3.852 | 3.342 | -1.446 |
| 4 | `CCc1nnsc1C(=O)NCc1nnc2n1CCC2` | 5.299 | -10.92 | 0.9814 | 5.802 | 1.623 |
| 5 | `Cc1cc(NC(=O)CN2CCC(N(C)Cc3ncc(C)o3)C2)n(C)n1` (configuration not stated) | -6.398 | -18.25 | 0.3463 | -2.289 | 8.065 |
| 6 | `Cn1/c(=N/C(=O)CSCC(=O)Nc2nccs2)sc2ccccc21` | 5.799 | 11.1 & 3.687 | -1.514 | 11.12 | 0.2574 |
| 7 | `O=C(NC1CCOCC1)C1CC(=O)N(Cc2ccccn2)C1` (configuration not stated) | -20.77 | -14.93 | 5.953 | -1.494 | 6.622 |
| 8 | `CCc1[nH]c2c(CNc3nccc(N)n3)cc(F)cc2c1C` | -13.41 | -5.218 | -16.11 | -5.951 | -2.368 |
| 9 | `CS(=O)(=O)NC1CCN(C(=O)c2ccc(Br)cc2)C1` (configuration not stated) | 5.252 | 31.25 | -17.78 | 4.037 | -0.146 |
| 10 | `Cc1ncc(C(=O)N2CC(C(=O)N3CCOCC3)C2)c(C)n1` | -9.343 | 29.64 | 4.642 | 5.434 | 18.8 |
| 11 | `CNC(=O)[C@@H]1CCO[C@@H]2CCN(Cc3ccsc3)C[C@H]21` | -8.699 | - | -0.2054 | 3.269 | - |
| 12 | `Cc1noc(C)c1CN(Cc1ccccc1)C(C)C` | -24.56 | -30.74 | 7.096 | -4.341 | 5.914 |
| 13 | `O=S(=O)(C1CC1)N1CCOC2(COCCN(c3ncccn3)C2)C1` (configuration not stated) | 17.49 | 2.312 | -39.64 | -0.7529 | 9.826 |
| 14 | `CCCSc1ccccc1NC(=O)N1CCN(C(=O)c2ccc[nH]2)CC1` | -3.527 | 22.55 | -19.13 | 0.6436 | -0.5564 |
| 15 | `Cc1c(C(C)NC(=O)Nc2ccccc2F)cnn1C` (configuration not stated) | -3.337 | 19.36 | -28.88 | 1.14 | 2.182 |
| 16 | `Nc1cccnc1N1CCC(c2ccccc2)CC1` | 5.018 | -14.06 | -11.31 | -0.9236 | -5.142 |
| 17 | `Cc1ccc(N(CC(=O)N2CCCCC2)C(=O)C2COCCO2)cc1` (configuration not stated) | -11.09 | 9.411 | -11.29 | 4.96 | -19.6 |
| 18 | `CN(Cc1cnn(C)c1)C(=O)CN1CCCC(Cn2cncn2)C1` (configuration not stated) | 13.75 | -11.26 | -32.03 | -4.869 | 96.23 |
| 19 | `[H][C@]12CCC[C@@]1(COCc1ccccn1)CN(C(=O)Cc1ccsc1)C2` | - | 27.23 | - | - | 1.493 |
| 20 | `CCn1ccnc1C1CCN(c2ncnc3ccsc23)CC1` | -2.68 | -0.0725 | -1.04 | -0.3602 | 3.349 |
| 21 | `COc1ccc(Br)cc1CN(C)C(C)c1nc(C(C)C)no1` (configuration not stated) | 2.121 | -22.5 | - | 4.63 | -20.86 |
| 22 | `Cc1cnc(N2CC[C@@H]3O[C@@H](COCC(=O)N(C)C)CC[C@@H]32)nc1` | 2.659 | - | -4.199 | 3.16 | - |
| 23 | `Cc1nn(C)cc1-c1ccnc(N2CCSCC2)n1` | -4.285 | -18.56 | -20.41 | -0.5339 | 8.329 |
| 24 | `Oc1cccc(CN2C[C@H]3CC[C@@H]2CN(Cc2ccc(F)cc2)C3)c1` | -12.08 | - | -36.65 | 4.723 | - |
| 25 | `Cc1ccc(C)c(CS(=O)(=O)CC(=O)N(C)Cc2cccc(F)c2)c1` | 11.27 | 13.96 | 1.88 | -2.084 | 6.788 |
| 26 | `Cc1nc2cc(-c3nccn3C)nn2c(N2CCCC(O)C2)c1C` (configuration not stated) | -11.8 | - | 23.61 | 2.038 | - |
| 27 | `COc1cccc(C2CCCN2C(=O)c2cc3c([nH]c2=O)CCC3)c1` (configuration not stated) | -0.2001 | 36.62 | 43.24 | 8.225 | -14.45 |
| 28 | `COCc1cncc2c1CCN(Cc1cccs1)C2.O=C(O)C(F)(F)F.O=C(O)C(F)(F)F` | - | -2.092 | - | - | -4.969 |
| 29 | `O=C(C1CCC1)N1CC[C@]2(O)CCN(Cc3ncccn3)C[C@@H]2C1` | 3.431 | - | -39.88 | 2.088 | - |
| 30 | `Cc1cccc(N2CCN(C(=O)NC(C)c3nncn3C)CC2)c1` (configuration not stated) | -8.554 | 3.413 | -25.65 | -1.911 | -13.12 |
| 31 | `CCOCCC1(CNC(=O)c2ccc(C)nc2)CCCC1` | -8.402 | 26.7 | -20.43 | 2.853 | 6.25 |
| 32 | `O=C(O)C(F)(F)F.[H][C@@]12CCCO[C@]1([H])[C@@H](NC(=O)C1CC1)CN2Cc1cccc(C#N)c1` | - | 4.203 | - | - | -2.913 |
| 33 | `Cc1ccc(C(C)(O)CNC(=O)c2sccc2Br)o1` (configuration not stated) | 2.455 | 15.68 | -57.36 | 3.097 | -0.9077 |
| 34 | `Cc1nc(CN(C)Cc2cn[nH]c2-c2ccc(F)cc2)c[nH]1` | -12.3 | -4.287 | -6.273 | 0.07919 | 0.2959 |
| 35 | `O=C(c1cc(-n2cccn2)ccn1)N1CCOc2ccc(F)cc21` | 4.184 | -23.11 | -11.56 | 4.148 | -16.8 |
| 36 | `Cc1noc(C)c1CN(C)C(=O)c1cnc(C2CC2)nc1O` | 10.07 | 65.78 | 6.095 | 0.4894 | 6.767 |
| 37 | `[H][C@]12CC[C@]([H])(CN(S(=O)(=O)c3cn(C)cn3)C1)N(Cc1cscn1)C2=O` | - | 17.55 | - | - | 1.126 |
| 38 | `CC(=O)Nc1nc2c(s1)CN(CC(=O)Nc1ccc(C)c(Cl)c1)CC2` | -3.664 | -7.624 | -36.29 | 0.5682 | -15.06 |
| 39 | `CCN(CC)S(=O)(=O)N(CC)Cc1ccc2c(c1)OCCO2` | -1.497 | 22.03 | -8.758 | 2.974 | -22.72 |
| 40 | `CC(C)Cc1cc(C(=O)NCCc2nnc(N)s2)n(C)n1` | -6.858 | 17.41 | -4.28 | 2.133 | -15.62 |
| 41 | `Cc1cccc(Nc2ccc(C3CCN(Cc4ncc[nH]4)CC3)nc2)n1` | -26.5 | 2.255 | -14.42 | 1.196 | -11.04 |
| 42 | `O=C(O)C(F)(F)F.c1csc(CN2CCn3c(Cn4cncn4)cnc3C2)n1` | - | 0.7173 | - | - | 4.382 |
| 43 | `CC(C)(C)c1nc(NS(=O)(=O)c2ccccc2F)no1` | -8.864 | -19.27 | 3.591 | 0.5337 | 14.9 |
| 44 | `Fc1ccc(CNc2ccccc2Cn2cncn2)cc1` | -3.133 | 10.44 | -1.507 | 8.664 | -5.522 |
| 45 | `CC(=O)Nc1nc(C(=O)NCc2ccnc(N3CCCC3)c2)cs1` | 6.85 | 30.42 | -7.197 | 1.043 | -5.196 |

3 of the entries, repeated:

- CC(=O)N1CCCC1c1nc(N(C)C)ncc1-c1ccccc1 (configuration not stated) : A: 2.227%; B: 8.174%; C: -35.3%; D: -3.559%
- COc1cc(CNCc2ccc(NC(=O)NC(C)C)cc2)cc(OC)c1 : A: 3.507%; B: 31.66%; C: -3.852%; D: 3.342%; E: -1.446%
- CC(C)Cc1cc(C(=O)NCCc2nnc(N)s2)n(C)n1 : A: -6.858%; B: 17.41%; C: -4.28%; D: 2.133%; E: -15.62%